Laboratory results reported in patent publication US20110195910A1, “USE OF TOCOTRIENOL COMPOSITION FOR THE PREVENTION OF CANCER” (DAVOS LIFE SCIENCE PTE. LTD., priority 2008, published 2011).
For at least one compound, name, drawing or mass did not settle the structure.

Experiments:
Format in all cases: cell-based
[1] = test system: Amelanotic melanoma (C32) cells; assay: MTT cell viability, C32 melanoma cells; conditions: 20 μM SP600125 together with γ-T3
[2] = test system: human androgen-independent PCa cells (PC-3); assay: MTT cell viability, PC-3 cells; conditions: 20 μM SP600125 together with γ-T3
[3] = test system: human estrogen-independent BCa cells (MDA-MB-231); assay: MTT cell viability, MDA-MB-231 cells; conditions: 20 μM SP600125 together with gamma-T3
Experimental: 1.1.3 Cell viability study and time course experiment—For cell viability study, 1×10^4 cells resuspended in 100 μl medium were plated into each well of a 96-well plate. The cells were then treated with different concentrations of the vitamin-E isomers for 24 hrs. After the treatment, 20 μl of 3-(4,5-Dimethyl thiazol-2-yl)-2,5-diphenyl tetrazolium bromide (MTT) solution was added into each well and the cells were incubated at 37° C. for 2 hrs. The formazan crystals were then re-suspended in 200 μl of DMSO and the intensity at 595 nm was measured. For JNK inhibitor study, cells were pre-treated with 20 μM of SP600125 for 8 hrs prior to the addition of vitamin-E isomers. For time course study, 5×10^3 cells were treated with different concentrations of the vitamin-E isomers and were subjected to MTT cell proliferation assay at the indicated time point. If IC50 for the isomer is >100 μM, 100 μM will be used as treatment dosage.
3.1.4 Cell viability and time course experiments were carried out as described above under item 1.1.3 with the following difference. For inhibitors study, cells were pre-treated with inhibitors (U0126, PD98059 and APN) at targeted dosage for 8 hrs prior to the addition of vitamin-E isomers.

Q: What does the source list for `Oc1c2ccccc2c2c3c(cccc13)N=N2` [SP600125]?
A: percentage of apoptotic cells, co-treatment vs γ-T3 alone [1]: decreased the percentage of apoptotic cells; percentage of apoptotic cells, co-treatment vs γ-T3 alone [2]: decreased the percentage of apoptotic cells; percentage of viable cells, co-treatment vs gamma-T3 alone [3]: increase the percentage of viable cells
